From the supplement of paper PMC5949888
Most values lie at the floor of the assay. Slopes are relative: functional sequences can read slightly below zero.

What follows are substances tested on Saccharomyces cerevisiae PS128 hsf1 delta, HSF1(1-493) fusion (assay: growth estimate (transactivation domain function in HSF1 fusion, heat-shock survival) (a.u. (slope of normalised read count over time)); higher = stronger growth at 37°C, i.e. more transactivation activity). Details: library: random library.
LEICQVCLQGACQNVTTLQR was tested, and the growth estimate was less than -0.25. LEKGAVQRVVRPGPMFDSNS was tested, and the growth estimate was less than -0.25. Substance LELERGS has a growth estimate of -0.245. For LELGEHVCVKKAPPHSAFKL, the growth estimate was -0.229. With LELKLTLGGRVDSLLSKFRS the growth estimate was less than -0.25. Work on LELWNGLSTLGLS yielded a growth estimate of less than -0.25. In the case of LEMEIDWLSGFSRCISLVSS, the growth estimate was less than -0.25. LENDAL was tested, and the growth estimate was less than -0.25. For LENPDHSFQDVCFKVRALSR, the growth estimate was less than -0.25. Substance LEPCSAASAPRLTCGEGTRC has a growth estimate of less than -0.25. LEQVFFT showed a growth estimate of less than -0.25. With LERFCGRPGSTPPSSGQPPD the growth estimate was -0.232. LERFRLEVK was tested, and the growth estimate was -0.189. In the case of LERGHKCTEIWSPKLLSRRF, the growth estimate was less than -0.25. Substance LERGVKHYVFWQNTLTARDS has a growth estimate of less than -0.25. LERIRQPQISCAGTRCWTAF was tested, and the growth estimate was less than -0.25. Substance LERLCFATFLEVHHIIVSTM has a growth estimate of less than -0.25. For LERWTLTYWVSILRLLRRPT, the growth estimate was less than -0.25. Work on LESAELGMGGLSR yielded a growth estimate of less than -0.25. Work on LESASAFPL yielded a growth estimate of less than -0.25. For LESSGTGGGGIGVGVITSVV, the growth estimate was less than -0.25. For LESYVYPVGTAWLCRTYRTH, the growth estimate was 0.109. Work on LETGTLGSTPVVKRCEVQSD yielded a growth estimate of less than -0.25. In the case of LETPALFLDGFANVSAWKYK, the growth estimate was less than -0.25. LETPKGLCAA was tested, and the growth estimate was -0.246. Work on LFAKDPLLNMSCVAHTANPS yielded a growth estimate of -0.241. LFAVIVEFNEARPVA gave a growth estimate of less than -0.25. For LFDVWG, the growth estimate was less than -0.25. LFEFSLVGRVAVTKVTNRVT was tested, and the growth estimate was less than -0.25. In the case of LFFV, the growth estimate was less than -0.25. Substance LFGEGSWLGCFS has a growth estimate of less than -0.25. Work on LFGGVDVGRGGLICGTQCCT yielded a growth estimate of less than -0.25. LFGIRREGKCSSGMAPVLCH gave a growth estimate of less than -0.25. LFGPWSYTPSYYTEASRCAV gave a growth estimate of less than -0.25. LFLASDQP showed a growth estimate of less than -0.25. LFLR showed a growth estimate of less than -0.25. For LFLRGALYCQNLHWNSPATS, the growth estimate was less than -0.25. LFMDFVFCRAWAT showed a growth estimate of less than -0.25. LFMVANIYVTSPAVLPNALD was tested, and the growth estimate was less than -0.25. For LFPPVGRSQDTAERYLNSAR, the growth estimate was less than -0.25. For LFRGCWLWAGWTSLGANFR, the growth estimate was less than -0.25. LFRGGIVARRMPLRDAAIHI gave a growth estimate of less than -0.25. LFRGMPVAK showed a growth estimate of less than -0.25. Work on LFRYLTFGYCLIHNVGRQTR yielded a growth estimate of less than -0.25. Work on LFSSAVDTRRARATLSITIA yielded a growth estimate of less than -0.25. LFV was tested, and the growth estimate was less than -0.25. LFVNRKSTTGCRSL was tested, and the growth estimate was less than -0.25. LFVSRWLYLRVSRHTTTSHR was tested, and the growth estimate was less than -0.25. Work on LFVVRIK yielded a growth estimate of -0.141. LGAAKAACEGCLGADWKSLF gave a growth estimate of -0.231. Work on LGAMHADGSAAFKALSRSGP yielded a growth estimate of less than -0.25. LGAVRWS was tested, and the growth estimate was less than -0.25. LGCLVVSCPCSQGSGHLARV gave a growth estimate of less than -0.25. Work on LGDHKLVLIQP yielded a growth estimate of less than -0.25. LGDPWGWEPCSYVGFAAPTL was tested, and the growth estimate was 1.28. For LGDTLWLA, the growth estimate was -0.248. For LGECGIATWLLQPRLL, the growth estimate was less than -0.25. Substance LGEEPETSVRTLNRGT has a growth estimate of less than -0.25. LGFACP gave a growth estimate of less than -0.25. With LGFASLMQKGWSMLLCSILV the growth estimate was less than -0.25. For LGFG, the growth estimate was less than -0.25. LGFKNRLRDSGGL was tested, and the growth estimate was less than -0.25. LGGAIR was tested, and the growth estimate was less than -0.25. LGGDQPVTTAP gave a growth estimate of less than -0.25. For LGGESRSVLSPVRS, the growth estimate was less than -0.25. LGGFFLVNMLFLRLNVVEHI gave a growth estimate of less than -0.25. For LGGKHSEDLLVAEPE, the growth estimate was less than -0.25. Substance LGGRTVGWMLLLPWRFRSPV has a growth estimate of less than -0.25. Work on LGGSGVEVKFTQFTQVAV yielded a growth estimate of less than -0.25. LGGVQSTTRANGQNQGSALL gave a growth estimate of less than -0.25. LGHCLAPPRE was tested, and the growth estimate was less than -0.25. Substance LGHD has a growth estimate of less than -0.25. Work on LGHFGA yielded a growth estimate of less than -0.25. For LGHQWPYGDEAAKAMAETPY, the growth estimate was less than -0.25. LGHRGE showed a growth estimate of less than -0.25. With LGHRSGKKRLSVSMFA the growth estimate was less than -0.25. Work on LGIATTHSYGVVG yielded a growth estimate of less than -0.25. In the case of LGIITLSRVGR, the growth estimate was less than -0.25. With LGIKRVTFGVSSMRSVNHCS the growth estimate was less than -0.25. With LGINVWDS the growth estimate was less than -0.25. Work on LGKESRA yielded a growth estimate of less than -0.25. With LGKMYPSITRPA the growth estimate was less than -0.25. Substance LGKT has a growth estimate of -0.219. LGLCSMWSTFTFGIPNFSSH showed a growth estimate of less than -0.25. For LGLHTYEPLDSLTPPA, the growth estimate was less than -0.25. For LGLLIAQPLTMF, the growth estimate was less than -0.25. In the case of LGLRFG, the growth estimate was less than -0.25. For LGLSFYG, the growth estimate was less than -0.25. LGLSKTGMVSPSCTIYATCP was tested, and the growth estimate was less than -0.25. In the case of LGLTNSRAHYNPCMSICHWA, the growth estimate was less than -0.25. Work on LGMRWPGSYLVYQFRCTTPP yielded a growth estimate of less than -0.25. Substance LGPAGERLRS has a growth estimate of less than -0.25. LGPARYATRARSGRVWHVSA was tested, and the growth estimate was less than -0.25. In the case of LGPTLVTTGVKKRGPVEPHL, the growth estimate was less than -0.25. LGPYYECKSRCQTASHLARL gave a growth estimate of less than -0.25. Work on LGQSRCCPIPVQRYYERATT yielded a growth estimate of less than -0.25. With LGQVRRLLGYVTFGISFLSR the growth estimate was less than -0.25. In the case of LGRAENTAGRWISGEELVRV, the growth estimate was less than -0.25.
